Data as given in PubChem BioAssay AID2685 (National Center for Advancing Translational Sciences (NCATS), 2010).
The other results are listed elsewhere or left out. These are further read-outs of the screen, such as a control signal, another cell line or another target. No call is given for them. Most of these compounds were active or inconclusive in the main read-out, so they are no random draw. The note in brackets gives the kind of curve behind each potency; many fits are weak.

Assay: qHTS Assay for Lipid Storage Modulators in Drosophila S3 Cells;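 on cell number change: cells counted by Cell Tracker Red CMTPX staining in the red channel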
Settings: BODIPY lipid droplet fluorescence, 18-24 h; for cell number change: measured here: cell count max response, cells fed with added oleic acid
Outline: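 Laser-scanning cytometry quantifies lipid droplet accumulation (500–530 nm total intensity; droplet/cell object ratio) in oleic acid-fed (400 uM added) Drosophila S3 cells treated with a concentration series. 20 uM Triacsin C defined 100% inhibition.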

[1] = measured here: cell number channel AC50, cells fed with added oleic acid
[2] = measured here: lipid fluorescence (Fed channel) AC50, cells fed with added oleic acid

Row | SMILES | cell number change | AC50 [1] | AC50 [2]
1 | COc1ccc(C(CC(=O)O)NC(=O)C2CCCCC2)cc1 (stereo not given) | -7.03% |  | 
2 | Clc1ccc(OCc2nnc3n2N=C(c2ccc4c(c2)OCCO4)CS3)c(Cl)c1 |  | 0.0651 µM [rising, full curve, poor fit] | 3.26 µM [rising, partial curve]
3 | CN(C(=O)c1ccccc1C(=O)OCC(=O)c1ccc(Br)cc1)c1ccccc1 | 32.7% | 32.6 µM [rising, single point] | 
4 | Cc1ccc(-c2nn(-c3ccc(F)cc3)cc2C(=O)NCC(c2cccs2)N2CCOCC2)cc1 (stereo not given) | -9.64% |  | 
5 | COc1ccc(-n2nc3c(c2NC(=O)COc2ccccc2)CS(=O)(=O)C3)cc1 | 17.3% |  | 
6 | CCCCOc1ccc(NC(=O)CSCC(=O)OCC)cc1 | -5.89% |  | 6.51 µM [falling, single point]
7 | O=C(COC(=O)C12CC3CC(CC(C3)C1)C2)Nc1ccc([N+](=O)[O-])cc1Cl | 3.23% |  | 13 µM [falling, partial curve, poor fit]
8 | CCOCCCn1c(=S)[nH]c2cc(C(=O)N3CCOCC3)ccc2c1=O | -12.7% |  | 32.6 µM [falling, single point]
9 | Cc1ccccc1NCC(=O)Nc1cc(S(=O)(=O)N2CCCCC2)ccc1C | 12.8% |  | 3.66 µM [falling, partial curve]
10 | O=C(c1ccc(=O)n(Cc2ccc(Cl)c(Cl)c2)c1)N1CCOCC1 | 5.17% |  | 
11 | Cc1nnc(NC(=O)CSc2nnc(C(C)NC(=O)c3ccccc3F)n2C)s1 (stereo not given) | -5.13% |  | 29.1 µM [rising, single point]
12 | N#Cc1nc(Cc2ccccc2)oc1N1CCN(c2cccc(Cl)c2)CC1 | -22.6% | 3.26 µM [falling, single point] | 18.4 µM [rising, single point]
13 | Cc1scc(C(=O)NNC(=S)NC(C)c2ccccc2)c1C (stereo not given) | 16.3% |  | 29.1 µM [rising, single point]
14 | COc1ccc(C(=O)NC(=S)NCc2ccc(-c3nc4ccccc4o3)cc2)cc1OC | -52.4% | 20.6 µM [falling, single point] | 
15 | Cn1c(SCCC#N)nnc1-c1ccccc1F |  | 0.103 µM [falling, full curve, poor fit] | 
16 | CSc1ncc(Cl)c(C(=O)Nc2ccc(S(=O)(=O)Nc3nccc(C)n3)cc2)n1 | 27.6% | 0.731 µM [rising, full curve, poor fit] | 0.00461 µM [falling, full curve, poor fit]
17 | O=C(NCC1CCCO1)c1ccc(NC(=O)C2C3C=CC(C3)C2C(=O)O)cc1 (stereo not given) | 17.8% |  | 
18 | CCCN(CC(=O)Nc1ccccc1C)C(=O)COc1ccc2c(c1)CCC2 | 38.2% | 29.1 µM [rising, single point] | 25.9 µM [rising, partial curve]
19 | O=C(CSc1nncn1-c1cccnc1)Nc1ccccc1C(F)(F)F | 9.57% |  | 29.1 µM [rising, single point]
20 | Cc1ccc(CCNC(=O)C2CCC(=O)N(Cc3cccc(F)c3)C2)cc1 (stereo not given) | 0.99% |  | 29.1 µM [rising, single point]

Row | SMILES | cell number change | AC50 [1] | AC50 [2]
21 | Fc1cc(F)cc(NC(=S)N2CCN(c3ncccn3)CC2)c1 | 46.3% | 6.51 µM [falling, partial curve, poor fit] | 
22 | CCc1nnc(NC(=O)CN2C(=O)NC3(CC(C)CC(C)(C)C3)C2=O)s1 (stereo not given) | -46.1% | 23.1 µM [falling, single point] | 
23 | COc1ccc(C)cc1S(=O)(=O)N1CCN(C(=O)c2ncoc2-c2cccc(F)c2)CC1 | 30.3% |  | 
24 | Nc1nc2c(s1)CCc1c-2cnn1-c1ccccc1 | -84.1% | 20.6 µM [falling, single point] | 23.1 µM [falling, single point]
25 | CCCCN(CCCC)c1nc(-c2ccncc2)nc2ccccc12 | 18.8% |  | 6.51 µM [rising, partial curve]
26 | COc1c(Cl)cnn(-c2ccc(Cl)c(Cl)c2)c1=O | 30.9% | 0.517 µM [rising, full curve, poor fit] | 4.11 µM [rising, partial curve]
27 | COc1ccc(S(=O)(=O)n2nc(OC(=O)c3ccccc3)cc2N)cc1 | 5.81% |  | 20.6 µM [falling, single point]
28 | c1csc(-c2nn3c(Cn4cnc5ccccc54)nnc3s2)c1 | 76.4% | 9.2 µM [rising, partial curve] | 6.51 µM [rising, single point]
29 | CCOC(=O)c1cccc(NC(=O)C2CCCN2S(=O)(=O)c2cccc3cccnc23)c1 (stereo not given) |  | 0.13 µM [rising, full curve, poor fit] | 2.31 µM [rising, partial curve]
30 | CN(C)S(=O)(=O)c1ccc(NC(=O)c2ccc(Br)o2)cc1 | -11.2% | 6.51 µM [rising, single point] | 29.1 µM [rising, partial curve]
31 | COc1ccccc1CNC(=S)Nc1ccc(F)cc1 | -1.09% |  | 
32 | c1ccc(Oc2nc(Oc3ccccc3)nc(N3CCOCC3)n2)cc1 | 28.3% |  | 20.6 µM [rising, partial curve]
33 | Cc1cccc(NC(=O)C[n+]2ccccc2)c1 | 16.7% |  | 
34 | Cc1csc(NC(=O)c2c(O)c3c(n(CC(C)C)c2=O)CCCC3)n1 |  | 1.3 µM [rising, full curve] | 
35 | COc1cc2nc(NC(=O)c3ccccc3)[nH]c(=O)c2cc1OC | -8.05% |  | 16.4 µM [falling, single point]
36 | CCc1sc(C(=O)N2CCCN(C)CC2)cc1Br | 9.68% |  | 
37 | O=[N+]([O-])c1ccc(NNC(=S)Nc2ccccc2)cc1 | -46.2% | 2.91 µM [rising, partial curve] | 
38 | Cn1cccc1Cc1nnc(SCC(=O)NC2CCCCC2)n1-c1ccc(F)cc1 | 76.3% | 20.6 µM [rising, single point] | 0.164 µM [rising, full curve, poor fit]
39 | Cc1nc(N2CCOCC2)nc2c1CCCC2 | -26% |  | 20.6 µM [falling, partial curve]
40 | CCOc1ccc(CCNC(=O)CSCC(=O)Nc2cccc(C)c2)cc1OCC | 108% | 20.6 µM [rising, single point] | 3.66 µM [falling, partial curve]

Row | SMILES | cell number change | AC50 [1] | AC50 [2]
41 | CCC(C)(C)NC(=O)C(c1ccc(OC)cc1)N(Cc1cccs1)C(=O)CCC(=O)Nc1cc(C)on1 (stereo not given) | -36.2% | 29.1 µM [falling, single point] | 29.1 µM [falling, partial curve]
42 | CCCCn1c(N)c(N(CCC(C)C)C(=O)CN2C(=O)C3CCCCC3C2=O)c(=O)[nH]c1=O (stereo not given) |  |  | 1.26 µM [rising, full curve, poor fit]
43 | COc1ccc(C(=O)N(C)C2CCCCC2)cc1S(=O)(=O)N1CCOCC1 | 18.4% | 0.082 µM [rising, full curve, poor fit] | 0.103 µM [rising, full curve, poor fit]
44 | Cn1cc(CN(CCCN2CCOCC2)C(=S)Nc2cccc(Cl)c2)c2ccccc21 | -0.731% |  | 0.411 µM [rising, full curve, poor fit]
45 | Cc1ccc(N=Nc2c(O)[nH]c3ccc(F)cc23)cc1 |  |  | 8.2 µM [falling, partial curve, poor fit]
46 | O=C(NC1CCN(C(=O)NC2CCCCC2)CC1)c1ccco1 | -37.9% | 13 µM [falling, partial curve] | 14.6 µM [falling, partial curve]
47 | CN1CCC(NC(=O)c2ccncc2)CC1 | -22.4% | 0.00651 µM [falling, full curve, poor fit] | 0.00461 µM [falling, full curve, poor fit]
48 | O=C(COc1ccc(F)cc1)Nc1nnc(S(=O)(=O)N2CCCC2)s1 | -1.2% |  | 29.1 µM [rising, single point]
49 | COc1ccc(NC(=O)CN(C)C(=O)C2CCCO2)cc1 (stereo not given) | 12.6% |  | 
50 | CCN(CC)S(=O)(=O)c1ccc2[nH]c(=O)cc(C(=O)Nc3ccc(C)cc3)c2c1 | 5.41% | 0.00461 µM [rising, full curve, poor fit] | 
51 | O=C(COC(=O)c1cccnc1Cl)c1ccc(F)cc1 | -25.7% |  | 
52 | O=C(N/N=C/c1ccncc1)C12CC3CC(CC(C3)C1)C2 | -27.4% |  | 5.17 µM [falling, full curve, poor fit]
53 | Cc1ccc2c(C(=O)CN3CCCC3)c(C)[nH]c2c1 | 13.1% |  | 2.06 µM [rising, partial curve]
54 | CC(C)CCNC(=O)[C@H](CC(C)C)NC(=O)[C@H]1O[C@@H]1C(=O)O | -15.8% |  | 25.9 µM [falling, single point]
55 | Cc1onc(-c2c(Cl)cccc2Cl)c1C(=O)NCCc1ccncc1 | 18.1% | 3.26 µM [rising, single point] | 
56 | COc1cc(OC)cc(-c2cc(N)n(S(=O)(=O)Cc3ccccc3)n2)c1 | 1.47% |  | 0.146 µM [rising, full curve, poor fit]
57 | O=C1/C(=N\S(=O)(=O)c2cccs2)C([n+]2ccc(CCCc3ccccc3)cc2)=C([O-])c2ccccc21 | -55.3% | 29.1 µM [falling, partial curve, poor fit] | 
58 | Cc1ccc(S(=O)(=O)N2Cc3ccccc3CC2C(=O)Nc2cc(C)on2)cc1 (stereo not given) | -3.67% |  | 0.651 µM [falling, single point]
59 | Cc1ccc(Cl)cc1NC(=O)COC(=O)c1ccc(CN2CCCC2=O)cc1 | -16.5% |  | 

Reprinted, entries 55–57
Row | SMILES | cell number change | AC50 [1] | AC50 [2]
55 | Cc1onc(-c2c(Cl)cccc2Cl)c1C(=O)NCCc1ccncc1 | 18.1% | 3.26 µM [rising, single point] | 
56 | COc1cc(OC)cc(-c2cc(N)n(S(=O)(=O)Cc3ccccc3)n2)c1 | 1.47% |  | 0.146 µM [rising, full curve, poor fit]
57 | O=C1/C(=N\S(=O)(=O)c2cccs2)C([n+]2ccc(CCCc3ccccc3)cc2)=C([O-])c2ccccc21 | -55.3% | 29.1 µM [falling, partial curve, poor fit] | 
